Part of at least one peptide drawing is inferred or uncertain, most often the ends. Ends that are not written are not given here.
Test system: Dahl/SS rats on 4% salt diet
Assay: Pharmacodynamic study of VD in rats: 6-week subcutaneous infusion in Dahl/SS rats on 4% salt diet
Format: in vivo, rat
Conditions: for Chronic Inflammation score (0-4) (mean ± SD) / Fibrosis score (0-4) (mean ± SD) / Vascular Smooth Muscle Cell Hypertrophy score (0-4) (mean ± SD) / Glomerulonephropathy score (Scale: 0-4) (mean ± SD) / Sum Score (Scale: 0-12) (mean ± SD) / Tubular Casts score (Scale: 0-4) (mean ± SD) / Tubulo-Interstitial Changes score (Scale: 0-4) (mean ± SD): 4% salt diet, 6 weeks; for Chronic Inflammation score (0-4) (mean ± SD) / Fibrosis score (0-4) (mean ± SD) / Vascular Smooth Muscle Cell Hypertrophy score (0-4) (mean ± SD): heart histopathology; for Glomerulonephropathy score (Scale: 0-4) (mean ± SD) / Sum Score (Scale: 0-12) (mean ± SD) / Tubular Casts score (Scale: 0-4) (mean ± SD) / Tubulo-Interstitial Changes score (Scale: 0-4) (mean ± SD): right kidney histopathology; for renal damage (histopathology) versus control group on 4% salt diet: both groups receiving VD by SQ infusion

Sequence: EVVPPQVLSEPNEEAGAALSPLPEVPPWTGEVSPAQR [VD, Vessel Dilator]
- Chronic Inflammation score (0-4) (mean ± SD) (100 ng/kg/min SC): 0.4 ± 0.7
- Fibrosis score (0-4) (mean ± SD) (100 ng/kg/min SC): 1.5 ± 0.5
- Vascular Smooth Muscle Cell Hypertrophy score (0-4) (mean ± SD) (100 ng/kg/min SC): 1.9 ± 0.3
- Glomerulonephropathy score (Scale: 0-4) (mean ± SD) (100 ng/kg/min SC): 2.4 ± 0.5
- Sum Score (Scale: 0-12) (mean ± SD) (100 ng/kg/min SC): 7.1 ± 1.4
- Tubular Casts score (Scale: 0-4) (mean ± SD) (100 ng/kg/min SC): 2.4 ± 0.5
- Tubulo-Interstitial Changes score (Scale: 0-4) (mean ± SD) (100 ng/kg/min SC): 2.3 ± 0.5
- Chronic Inflammation score (0-4) (mean ± SD) (300 ng/kg/min SC): 0.2 ± 0.4
- Fibrosis score (0-4) (mean ± SD) (300 ng/kg/min SC): 1.1 ± 0.3
- Vascular Smooth Muscle Cell Hypertrophy score (0-4) (mean ± SD) (300 ng/kg/min SC): 1.6 ± 0.5
- Glomerulonephropathy score (Scale: 0-4) (mean ± SD) (300 ng/kg/min SC): 2.4 ± 0.5
- Sum Score (Scale: 0-12) (mean ± SD) (300 ng/kg/min SC): 7.0 ± 1.8
- Tubular Casts score (Scale: 0-4) (mean ± SD) (300 ng/kg/min SC): 2.2 ± 0.8
- Tubulo-Interstitial Changes score (Scale: 0-4) (mean ± SD) (300 ng/kg/min SC): 2.4 ± 0.5
- other outcomes (renin, aldosterone, NT-proBNP, metabolic markers, kidney injury markers, urinary sodium and potassium excretion, echocardiograms) (6-week study, groups receiving VD vs control groups): no remarkable treatment effects
- cardiac changes (vascular smooth muscle cell hypertrophy, fibrosis) compared to the 4% salt control group (Vessel Dilator treated animals, after 6 weeks): modestly decreased
- renal damage (histopathology) versus control group on 4% salt diet (after 6 weeks): less renal damage
- renal damage (histopathology) versus control group on 4% salt diet (after 6 weeks, listed as Vessel Dilator): less renal damage than the control group
- urine cyclic GMP levels (drug-treated groups (either dose), weeks 2, 4, 6): stayed lower than the cGMP levels in the high-salt diet control group
- renal cortical blood flow relative to both vehicle control groups (high-dose VD (300 ng/kg/min), end of the study, p-value<0.05): significantly increased renal cortical blood flow
- 24-hour albumin excretion in urine compared with vehicle control on 4% salt diet (high-dose VD (300 ng/kg/min), weeks 2, 4 and 6, p-value<0.05): dramatically lower levels of albumin excretion
- 24-hour protein excretion in urine compared with vehicle control on 4% salt diet (high-dose VD (300 ng/kg/min), weeks 2, 4 and 6, statistically significant at 6 weeks (p-value<0.05)): lower levels of protein excretion in urine
- effect on reducing albuminuria (low-dose VD (100 ng/kg/min)): not as pronounced
- effect on reducing proteinuria (low-dose VD (100 ng/kg/min)): not as pronounced
- creatinine clearance compared to both control groups (week 2, low-dose and high-dose SQ infusion of VD, p-value less than 0.05): statistically significant decreases in creatinine clearance
- blood pressure compared with the 4% vehicle control group (week 3, low-dose (100) and high-dose (300 ng/kg/min) VD groups, p-value<0.05): statistically significant decrease in blood pressure
- rate of creatinine clearance compared to both control groups (week 4, VD-dosed groups, p-value less than 0.05, maintained at similar level as week 2): statistically significant differences compared to both control groups
- decrease in blood pressure compared with the 4% vehicle control group (week 5, low-dose (100) and high-dose (300 ng/kg/min) VD groups): not as statistically significant
- serum ANP levels (week 6): elevated in high-salt diet control animals at week 6 but not in vessel dilator treated animals
- serum prostaglandin E2 (PGE2) levels (week 6, VD-treated groups): dose dependent increase
- serum urea (BUN) (week 6, both VD-treated groups): significantly higher serum urea than either control group
- serum PGE level (week 6, high-dose group (300 ng/kg/min)): statistically significant increase compared to both control groups
- renal cortical blood flow relative to the vehicle control groups (week 6, the two groups receiving VD peptide (100 and 300 ng/kg/min)): increased

Reference: patent publication US9616107B2, “Therapy for kidney disease and/or heart failure” (priority 2011, dated 2017)
